Laboratory results taken from publication PMC4881023, “SALM5 trans-synaptically interacts with LAR-RPTPs in a splicing-dependent manner to regulate synapse development” (Scientific Reports, 2016).
Results are given in words; binding and its absence hold for the method and conditions named.

Columns and labels:
[1] = target: SALM5-Ecto-pDis (not stated (mouse and human SALM5 are named for other constructs)) (UniProt Q8BXA0); experiment: cell aggregation assay; two groups of transfected L cells (EGFP + SALM construct; DsRed + LAR-RPTP construct) trypsinized, resuspended in DMEM, mixed and rotated at room temperature for 2 hours; average aggregate size
[2] = target: SALM4-Ecto-pDis (UniProt Q8BLY3); experiment: as above

| binding [1] | binding [2] | Binder |
| --- | --- | --- |
| no binding | – | SALM5-Ecto-pDis (domain or fragment, UniProt Q8BXA0 18-529) QICPKRCVCQILSPNLATLCAKKGLLFVPPNIDRRTVELRLADNFVTNIKRKDFANMTSLVDLTLSRNTISFITPHAFADLRNLRALHLNSNRLTKITNDMFSGLSNLHHLILNNNQLTLISSTAFDDVFALEELDLSYNNLETIPWDAVEKMVSLHTLSLDHNMIDNIPKGTFSHLHKMTRLDVTSNKLQKLPPDPLFQRAQVLATSGIISPSTFALSFGGNPLHCNCELLWLRRLSREDDLETCASPALLTGRYFWSIPEEEFLCEPPLITRHTHEMRVLEGQRATLRCKARGDPEPAIHWISPEGKLISNATRSLVYDNGTLDILITTVKDTGAFTCIASNPAGEATQTVDLHIIKLPHLLNSTNHIHEPDPGSSDISTSTKSGSNASSSNGDTKMSQDKIVVAEATSSTALLKFNFQRNIPGIRMFQIQYNGTYDDTLVYRMIPPTSKTFLVNNLASGTMYDLCVLAIYDDGITSLTATRVVGCIQFTTEQDYVRCHFMQSQFLGGTM |
| – | no binding | SALM4-Ecto-pDis (domain or fragment, UniProt Q8BLY3 17-539) SSPPQPAISSPCPRRCRCQTQSMPLSVLCPGAGLLFVPPSLDRRAAELRLADNFIAAVRRRDLANMTGLLHLSLSRNTIRHVAAGAFADLRALRALHLDGNRLTSLGEGQLRGLVNLRHLILSNNQLAALAAGALDDCAETLEDLDLSYNNLEQLPWEALGRLGNVNTLGLDHNLLASVPAGAFSRLHKLARLDMTSNRLTTIPPDPLFSRLPLLARPRGSPASALVLAFGGNPLHCNCELVWLRRLAREDDLEACASPPALGGRYFWAVGEEEFVCEPPVVTHRSPPLAVPAGRPAALRCRAVGDPEPRVRWVSPQGRLLGNSSRARAFPNGTLELLVTEPEDGGTFTCIAANAAGEATAAVELTVGPPPPPQLANSTSCDPPRDGEPDALTPPSAASASAKVADTVAPTDRGVQVTEHGATAALVQWPDQRPVPGIRMYQIQYNSSADDILVYRMIPADSRSFLLTDLASGRTYDLCVLAVYEDSATGLTATRPVGCARFSTEPALRPCAAPHAPFLGGTM |
